# Some of the results follow.
# B1: SJCP1531 (Schistosoma japonicum) (protein)
# chain: MFKVRIINLVNISTVLLLINLLQTKSQVNVEQLVTVLEVNIKAQLKNKTTEVLVEWNPLYQDNSMPEYRKLLDETCKLFLPFVNEKVPPSTYGGECTNANFSEAPQDGSYSRVNAELRLIYKYSDNPQIQTDRLQDDLNDREEFITSESSFVAYNPKFTVKIEKLFIPISESQTTPPPTTAKNDASKKDDDDNGGEDSKAPIDTFAMTASGNKGKKDDDDNGGEDSKAPIDTFAMTASGSKDERSTWTIIGIITLVVLIFVVIGGGITVFVKRC
# How the values were obtained:
# Assay in all cases: glycan array binding signal (z-score within array); higher = stronger binding
# Details in all cases: glycan notation: IUPAC condensed, linker removed
# [1] = target: Glc(b1-6)Glc
# In short: (§1)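 From the Consortium for Functional Glycomics database, 3228 arrays were curated, keeping only those whose protein sequence was available. Binding is given as a within-array Z-score averaged across arrays sharing a protein sequence and across linkers. Negative Z-scores can be read as non-binding.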
# [2] = target: GlcA(b1-3)Gal
# In short: as §1
# [3] = target: GlcA(b1-3)GlcNAc
# In short: as §1
# [4] = target: GlcA(b1-6)Gal
# In short: as §1
# [5] = target: GlcA3S(b1-3)Gal(b1-4)GlcNAc(b1-2)Man
# In short: as §1
# [6] = target: GlcA3S(b1-3)Gal(b1-4)GlcNAc(b1-3)Gal(b1-4)Glc
# In short: as §1
# [7] = target: GlcNAc(a1-3)Gal(b1-4)GlcNAc
# In short: as §1
# [8] = target: GlcNAc(a1-4)Gal(b1-3)GlcNAc
# In short: as §1
# [9] = target: GlcNAc(a1-4)Gal(b1-4)GalNAc
# In short: as §1
# [10] = target: GlcNAc(a1-4)Gal(b1-4)GlcNAc
# In short: as §1
# [11] = target: GlcNAc(a1-4)Gal(b1-4)GlcNAc(b1-3)Gal(b1-4)Glc
# In short: as §1
# [12] = target: GlcNAc(a1-4)Gal(b1-4)GlcNAc(b1-3)Gal(b1-4)GlcNAc
# In short: as §1
# [13] = target: GlcNAc(a1-4)Gal(b1-4)GlcNAc(b1-3)Gal(b1-4)GlcNAc(b1-3)Gal(b1-4)GlcNAc
# In short: as §1
# [14] = target: GlcNAc(a1-4)Gal(b1-4)GlcNAc(b1-3)Gal(b1-4)[Fuc(a1-3)]GlcNAc(b1-3)Gal(b1-4)[Fuc(a1-3)]GlcNAc
# In short: as §1
# [15] = target: GlcNAc(a1-6)Gal(b1-4)GlcNAc
# In short: as §1
# [16] = target: GlcNAc(b1-2)Gal(b1-3)GalNAc
# In short: as §1
# [17] = target: GlcNAc(b1-2)Man(a1-3)[GlcNAc(b1-2)Man(a1-6)]Man(b1-4)GlcNAc(b1-4)GlcNAc
# In short: as §1
# [18] = target: GlcNAc(b1-2)Man(a1-3)[GlcNAc(b1-2)Man(a1-6)]Man(b1-4)GlcNAc(b1-4)[Fuc(a1-6)]GlcNAc
# In short: as §1
# [19] = target: GlcNAc(b1-2)Man(a1-3)[GlcNAc(b1-4)][GlcNAc(b1-2)Man(a1-6)]Man(b1-4)GlcNAc(b1-4)GlcNAc
# In short: as §1
# [20] = target: GlcNAc(b1-2)Man(a1-3)[GlcNAc(b1-4)][GlcNAc(b1-2)Man(a1-6)]Man(b1-4)GlcNAc(b1-4)[Fuc(a1-6)]GlcNAc
# In short: as §1
# [21] = target: GlcNAc(b1-2)[GlcNAc(b1-4)]Man(a1-3)[GlcNAc(b1-2)Man(a1-6)]Man(b1-4)GlcNAc(b1-4)GlcNAc
# In short: as §1
# [22] = target: GlcNAc(b1-2)[GlcNAc(b1-4)]Man(a1-3)[GlcNAc(b1-4)][GlcNAc(b1-2)Man(a1-6)]Man(b1-4)GlcNAc(b1-4)GlcNAc
# In short: as §1
# [23] = target: GlcNAc(b1-2)[GlcNAc(b1-4)]Man(a1-3)[GlcNAc(b1-4)][GlcNAc(b1-2)[GlcNAc(b1-6)]Man(a1-6)]Man(b1-4)GlcNAc(b1-4)GlcNAc
# In short: as §1
# [24] = target: GlcNAc(b1-2)[GlcNAc(b1-4)]Man(a1-3)[GlcNAc(b1-4)][GlcNAc(b1-2)[GlcNAc(b1-6)]Man(a1-6)]Man(b1-4)GlcNAc(b1-4)[Fuc(a1-6)]GlcNAc
# In short: as §1
# [25] = target: GlcNAc(b1-2)[GlcNAc(b1-6)]Man(a1-6)[GlcNAc(b1-2)Man(a1-3)]Man(b1-4)GlcNAc(b1-4)GlcNAc
# In short: as §1
# [26] = target: GlcNAc(b1-2)[GlcNAc(b1-6)]Man(a1-6)[GlcNAc(b1-2)Man(a1-3)]Man(b1-4)GlcNAc(b1-4)[Fuc(a1-6)]GlcNAc
# In short: as §1
# [27] = target: GlcNAc(b1-2)[GlcNAc(b1-6)]Man(a1-6)[GlcNAc(b1-4)][GlcNAc(b1-2)Man(a1-3)]Man(b1-4)GlcNAc(b1-4)GlcNAc
# In short: as §1
# [28] = target: GlcNAc(b1-3)Fuc
# In short: as §1
# [29] = target: GlcNAc(b1-3)Gal
# In short: as §1
# [30] = target: GlcNAc(b1-3)Gal(b1-3)GalNAc
# In short: as §1
# [31] = target: GlcNAc(b1-3)Gal(b1-4)Glc
# In short: as §1
# [32] = target: GlcNAc(b1-3)Gal(b1-4)GlcNAc
# In short: as §1
# [33] = target: GlcNAc(b1-3)Gal(b1-4)GlcNAc(b1-2)Man(a1-3)[GlcNAc(b1-3)Gal(b1-4)GlcNAc(b1-2)Man(a1-6)]Man(b1-4)GlcNAc(b1-4)GlcNAc
# In short: as §1
# [34] = target: GlcNAc(b1-3)Gal(b1-4)GlcNAc(b1-2)Man(a1-3)[GlcNAc(b1-3)Gal(b1-4)GlcNAc(b1-2)Man(a1-6)]Man(b1-4)GlcNAc(b1-4)[Fuc(a1-6)]GlcNAc
# In short: as §1
# [35] = target: GlcNAc(b1-3)Gal(b1-4)GlcNAc(b1-2)[GlcNAc(b1-3)Gal(b1-4)GlcNAc(b1-6)]Man(a1-6)[GlcNAc(b1-3)Gal(b1-4)GlcNAc(b1-2)Man(a1-3)]Man(b1-4)GlcNAc(b1-4)GlcNAc
# In short: as §1
# [36] = target: GlcNAc(b1-3)Gal(b1-4)GlcNAc(b1-3)Gal(b1-4)GlcNAc
# In short: as §1
# [37] = target: GlcNAc(b1-3)Gal(b1-4)GlcNAc(b1-3)Gal(b1-4)GlcNAc(b1-2)Man(a1-3)[GlcNAc(b1-3)Gal(b1-4)GlcNAc(b1-3)Gal(b1-4)GlcNAc(b1-2)Man(a1-6)]Man(b1-4)GlcNAc(b1-4)GlcNAc
# In short: as §1
# [38] = target: GlcNAc(b1-3)Gal(b1-4)GlcNAc(b1-3)Gal(b1-4)GlcNAc(b1-2)Man(a1-3)[GlcNAc(b1-3)Gal(b1-4)GlcNAc(b1-3)Gal(b1-4)GlcNAc(b1-2)Man(a1-6)]Man(b1-4)GlcNAc(b1-4)[Fuc(a1-6)]GlcNAc
# In short: as §1
# [39] = target: GlcNAc(b1-3)Gal(b1-4)GlcNAc(b1-3)Gal(b1-4)GlcNAc(b1-2)[GlcNAc(b1-3)Gal(b1-4)GlcNAc(b1-3)Gal(b1-4)GlcNAc(b1-6)]Man(a1-6)[GlcNAc(b1-3)Gal(b1-4)GlcNAc(b1-3)Gal(b1-4)GlcNAc(b1-2)Man(a1-3)]Man(b1-4)GlcNAc(b1-4)[Fuc(a1-6)]GlcNAc
# In short: as §1
# [40] = target: GlcNAc(b1-3)Gal(b1-4)GlcNAc(b1-3)Gal(b1-4)GlcNAc(b1-3)Gal(b1-4)GlcNAc(b1-2)Man(a1-3)[GlcNAc(b1-3)Gal(b1-4)GlcNAc(b1-3)Gal(b1-4)GlcNAc(b1-3)Gal(b1-4)GlcNAc(b1-2)Man(a1-6)]Man(b1-4)GlcNAc(b1-4)GlcNAc
# In short: as §1
# [41] = target: GlcNAc(b1-3)Gal(b1-4)GlcNAc(b1-3)Gal(b1-4)GlcNAc(b1-3)Gal(b1-4)GlcNAc(b1-2)Man(a1-3)[GlcNAc(b1-3)Gal(b1-4)GlcNAc(b1-3)Gal(b1-4)GlcNAc(b1-3)Gal(b1-4)GlcNAc(b1-2)Man(a1-6)]Man(b1-4)GlcNAc(b1-4)[Fuc(a1-6)]GlcNAc
# In short: as §1
# [42] = target: GlcNAc(b1-3)Gal(b1-4)GlcNAc(b1-3)Gal(b1-4)GlcNAc(b1-3)Gal(b1-4)GlcNAc(b1-2)[GlcNAc(b1-3)Gal(b1-4)GlcNAc(b1-3)Gal(b1-4)GlcNAc(b1-3)Gal(b1-4)GlcNAc(b1-6)]Man(a1-6)[GlcNAc(b1-3)Gal(b1-4)GlcNAc(b1-3)Gal(b1-4)GlcNAc(b1-3)Gal(b1-4)GlcNAc(b1-2)Man(a1-3)]Man(b1-4)GlcNAc(b1-4)[Fuc(a1-6)]GlcNAc
# In short: as §1
# [43] = target: GlcNAc(b1-3)Gal(b1-4)GlcNAc(b1-3)Gal(b1-4)GlcNAc(b1-3)Gal(b1-4)GlcNAc(b1-3)Gal(b1-4)GlcNAc(b1-2)Man(a1-3)[GlcNAc(b1-3)Gal(b1-4)GlcNAc(b1-3)Gal(b1-4)GlcNAc(b1-3)Gal(b1-4)GlcNAc(b1-3)Gal(b1-4)GlcNAc(b1-2)Man(a1-6)]Man(b1-4)GlcNAc(b1-4)GlcNAc
# In short: as §1
# [44] = target: GlcNAc(b1-3)Gal(b1-4)GlcNAc(b1-3)Gal(b1-4)GlcNAc(b1-3)Gal(b1-4)GlcNAc(b1-3)Gal(b1-4)GlcNAc(b1-2)Man(a1-3)[GlcNAc(b1-3)Gal(b1-4)GlcNAc(b1-3)Gal(b1-4)GlcNAc(b1-3)Gal(b1-4)GlcNAc(b1-3)Gal(b1-4)GlcNAc(b1-2)Man(a1-6)]Man(b1-4)GlcNAc(b1-4)[Fuc(a1-6)]GlcNAc
# In short: as §1
# [45] = target: GlcNAc(b1-3)Gal(b1-4)GlcNAc(b1-3)Gal(b1-4)GlcNAc(b1-3)Gal(b1-4)GlcNAc(b1-3)Gal(b1-4)GlcNAc(b1-2)[GlcNAc(b1-3)Gal(b1-4)GlcNAc(b1-3)Gal(b1-4)GlcNAc(b1-3)Gal(b1-4)GlcNAc(b1-3)Gal(b1-4)GlcNAc(b1-6)]Man(a1-6)[GlcNAc(b1-3)Gal(b1-4)GlcNAc(b1-3)Gal(b1-4)GlcNAc(b1-3)Gal(b1-4)GlcNAc(b1-3)Gal(b1-4)GlcNAc(b1-2)Man(a1-3)]Man(b1-4)GlcNAc(b1-4)[Fuc(a1-6)]GlcNAc
# In short: as §1
binder,measurement,setting,value
B1,glycan array binding signal (z-score),[1],-0.797
same,glycan array binding signal (z-score),[2],0.452
same,glycan array binding signal (z-score),[3],-0.723
same,glycan array binding signal (z-score),[4],0.632
same,glycan array binding signal (z-score),[5],1.07
same,glycan array binding signal (z-score),[6],-1.52
same,glycan array binding signal (z-score),[7],0.476
same,glycan array binding signal (z-score),[8],-0.95
same,glycan array binding signal (z-score),[9],0.941
same,glycan array binding signal (z-score),[10],-1.98
same,glycan array binding signal (z-score),[11],-1.45
same,glycan array binding signal (z-score),[12],-0.361
same,glycan array binding signal (z-score),[13],-0.281
same,glycan array binding signal (z-score),[14],2.8
same,glycan array binding signal (z-score),[15],0.017
same,glycan array binding signal (z-score),[16],-1.08
same,glycan array binding signal (z-score),[17],-0.485
same,glycan array binding signal (z-score),[18],1.41
same,glycan array binding signal (z-score),[19],-0.08
same,glycan array binding signal (z-score),[20],-0.027
same,glycan array binding signal (z-score),[21],-1.18
same,glycan array binding signal (z-score),[22],-0.933
same,glycan array binding signal (z-score),[23],0.431
same,glycan array binding signal (z-score),[24],0.165
same,glycan array binding signal (z-score),[25],-1.11
same,glycan array binding signal (z-score),[26],0.501
same,glycan array binding signal (z-score),[27],-0.734
same,glycan array binding signal (z-score),[28],-0.112
same,glycan array binding signal (z-score),[29],-2.21
same,glycan array binding signal (z-score),[30],-0.173
same,glycan array binding signal (z-score),[31],0.828
same,glycan array binding signal (z-score),[32],0.345
same,glycan array binding signal (z-score),[33],0.043
same,glycan array binding signal (z-score),[34],-0.143
same,glycan array binding signal (z-score),[35],0.31
same,glycan array binding signal (z-score),[36],-0.766
same,glycan array binding signal (z-score),[37],1.81
same,glycan array binding signal (z-score),[38],1.04
same,glycan array binding signal (z-score),[39],1.72
same,glycan array binding signal (z-score),[40],-0.047
same,glycan array binding signal (z-score),[41],0.944
same,glycan array binding signal (z-score),[42],1.84
same,glycan array binding signal (z-score),[43],0.067
same,glycan array binding signal (z-score),[44],1.01
same,glycan array binding signal (z-score),[45],1.4

# 2 records picked at random from the list so far, as already listed:
binder,measurement,setting,value
B1,glycan array binding signal (z-score),[22],-0.933
same,glycan array binding signal (z-score),[5],1.07

# — the supplement of paper PMC8728848
